# Some of the results follow. Most values lie at the level of the controls, where differences are scatter.
# Chains of the proteins cited; added tags and fusions are not shown. Lines headed by an entry give the natural chain unless they say otherwise; changes in a name come on top.
# UniProt Q60674: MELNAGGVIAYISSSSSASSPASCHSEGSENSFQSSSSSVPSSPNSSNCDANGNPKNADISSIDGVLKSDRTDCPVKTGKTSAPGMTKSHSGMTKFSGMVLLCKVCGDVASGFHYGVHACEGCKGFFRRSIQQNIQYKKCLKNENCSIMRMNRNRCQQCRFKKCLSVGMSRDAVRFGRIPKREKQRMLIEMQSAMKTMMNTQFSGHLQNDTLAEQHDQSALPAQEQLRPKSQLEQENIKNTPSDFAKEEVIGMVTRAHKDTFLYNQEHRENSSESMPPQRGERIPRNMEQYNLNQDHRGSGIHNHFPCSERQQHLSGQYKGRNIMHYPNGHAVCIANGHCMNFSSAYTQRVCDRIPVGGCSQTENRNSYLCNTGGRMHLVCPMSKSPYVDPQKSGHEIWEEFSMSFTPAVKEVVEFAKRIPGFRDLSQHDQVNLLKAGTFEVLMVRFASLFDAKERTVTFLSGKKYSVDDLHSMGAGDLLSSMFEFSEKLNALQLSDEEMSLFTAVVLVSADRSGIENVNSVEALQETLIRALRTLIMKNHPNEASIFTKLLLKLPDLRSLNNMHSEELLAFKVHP
# UniProt Q60I26: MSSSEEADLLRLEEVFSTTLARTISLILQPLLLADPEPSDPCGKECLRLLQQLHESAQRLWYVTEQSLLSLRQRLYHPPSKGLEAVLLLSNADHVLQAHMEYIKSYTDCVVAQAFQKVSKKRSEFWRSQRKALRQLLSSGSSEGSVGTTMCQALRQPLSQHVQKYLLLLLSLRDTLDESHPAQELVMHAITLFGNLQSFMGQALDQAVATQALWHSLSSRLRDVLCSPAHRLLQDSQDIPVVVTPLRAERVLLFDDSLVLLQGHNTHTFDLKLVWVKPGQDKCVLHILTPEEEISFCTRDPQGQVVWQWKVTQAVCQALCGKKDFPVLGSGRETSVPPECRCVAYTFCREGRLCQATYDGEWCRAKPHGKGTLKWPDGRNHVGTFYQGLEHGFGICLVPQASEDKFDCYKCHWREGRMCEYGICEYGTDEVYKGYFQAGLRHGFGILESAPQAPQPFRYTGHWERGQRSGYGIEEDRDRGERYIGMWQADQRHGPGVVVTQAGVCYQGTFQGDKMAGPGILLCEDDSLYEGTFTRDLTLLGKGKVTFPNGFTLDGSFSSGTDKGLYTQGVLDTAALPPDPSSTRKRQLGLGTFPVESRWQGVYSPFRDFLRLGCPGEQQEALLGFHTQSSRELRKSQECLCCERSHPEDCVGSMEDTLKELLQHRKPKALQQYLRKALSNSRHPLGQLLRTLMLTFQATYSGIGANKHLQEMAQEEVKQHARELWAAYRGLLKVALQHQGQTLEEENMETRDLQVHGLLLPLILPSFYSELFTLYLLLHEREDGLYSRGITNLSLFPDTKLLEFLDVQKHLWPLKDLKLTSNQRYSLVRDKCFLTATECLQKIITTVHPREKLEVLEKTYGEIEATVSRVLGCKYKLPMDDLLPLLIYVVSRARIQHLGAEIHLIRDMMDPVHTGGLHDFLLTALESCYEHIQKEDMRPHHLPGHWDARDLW
# UniProt Q5SYL3: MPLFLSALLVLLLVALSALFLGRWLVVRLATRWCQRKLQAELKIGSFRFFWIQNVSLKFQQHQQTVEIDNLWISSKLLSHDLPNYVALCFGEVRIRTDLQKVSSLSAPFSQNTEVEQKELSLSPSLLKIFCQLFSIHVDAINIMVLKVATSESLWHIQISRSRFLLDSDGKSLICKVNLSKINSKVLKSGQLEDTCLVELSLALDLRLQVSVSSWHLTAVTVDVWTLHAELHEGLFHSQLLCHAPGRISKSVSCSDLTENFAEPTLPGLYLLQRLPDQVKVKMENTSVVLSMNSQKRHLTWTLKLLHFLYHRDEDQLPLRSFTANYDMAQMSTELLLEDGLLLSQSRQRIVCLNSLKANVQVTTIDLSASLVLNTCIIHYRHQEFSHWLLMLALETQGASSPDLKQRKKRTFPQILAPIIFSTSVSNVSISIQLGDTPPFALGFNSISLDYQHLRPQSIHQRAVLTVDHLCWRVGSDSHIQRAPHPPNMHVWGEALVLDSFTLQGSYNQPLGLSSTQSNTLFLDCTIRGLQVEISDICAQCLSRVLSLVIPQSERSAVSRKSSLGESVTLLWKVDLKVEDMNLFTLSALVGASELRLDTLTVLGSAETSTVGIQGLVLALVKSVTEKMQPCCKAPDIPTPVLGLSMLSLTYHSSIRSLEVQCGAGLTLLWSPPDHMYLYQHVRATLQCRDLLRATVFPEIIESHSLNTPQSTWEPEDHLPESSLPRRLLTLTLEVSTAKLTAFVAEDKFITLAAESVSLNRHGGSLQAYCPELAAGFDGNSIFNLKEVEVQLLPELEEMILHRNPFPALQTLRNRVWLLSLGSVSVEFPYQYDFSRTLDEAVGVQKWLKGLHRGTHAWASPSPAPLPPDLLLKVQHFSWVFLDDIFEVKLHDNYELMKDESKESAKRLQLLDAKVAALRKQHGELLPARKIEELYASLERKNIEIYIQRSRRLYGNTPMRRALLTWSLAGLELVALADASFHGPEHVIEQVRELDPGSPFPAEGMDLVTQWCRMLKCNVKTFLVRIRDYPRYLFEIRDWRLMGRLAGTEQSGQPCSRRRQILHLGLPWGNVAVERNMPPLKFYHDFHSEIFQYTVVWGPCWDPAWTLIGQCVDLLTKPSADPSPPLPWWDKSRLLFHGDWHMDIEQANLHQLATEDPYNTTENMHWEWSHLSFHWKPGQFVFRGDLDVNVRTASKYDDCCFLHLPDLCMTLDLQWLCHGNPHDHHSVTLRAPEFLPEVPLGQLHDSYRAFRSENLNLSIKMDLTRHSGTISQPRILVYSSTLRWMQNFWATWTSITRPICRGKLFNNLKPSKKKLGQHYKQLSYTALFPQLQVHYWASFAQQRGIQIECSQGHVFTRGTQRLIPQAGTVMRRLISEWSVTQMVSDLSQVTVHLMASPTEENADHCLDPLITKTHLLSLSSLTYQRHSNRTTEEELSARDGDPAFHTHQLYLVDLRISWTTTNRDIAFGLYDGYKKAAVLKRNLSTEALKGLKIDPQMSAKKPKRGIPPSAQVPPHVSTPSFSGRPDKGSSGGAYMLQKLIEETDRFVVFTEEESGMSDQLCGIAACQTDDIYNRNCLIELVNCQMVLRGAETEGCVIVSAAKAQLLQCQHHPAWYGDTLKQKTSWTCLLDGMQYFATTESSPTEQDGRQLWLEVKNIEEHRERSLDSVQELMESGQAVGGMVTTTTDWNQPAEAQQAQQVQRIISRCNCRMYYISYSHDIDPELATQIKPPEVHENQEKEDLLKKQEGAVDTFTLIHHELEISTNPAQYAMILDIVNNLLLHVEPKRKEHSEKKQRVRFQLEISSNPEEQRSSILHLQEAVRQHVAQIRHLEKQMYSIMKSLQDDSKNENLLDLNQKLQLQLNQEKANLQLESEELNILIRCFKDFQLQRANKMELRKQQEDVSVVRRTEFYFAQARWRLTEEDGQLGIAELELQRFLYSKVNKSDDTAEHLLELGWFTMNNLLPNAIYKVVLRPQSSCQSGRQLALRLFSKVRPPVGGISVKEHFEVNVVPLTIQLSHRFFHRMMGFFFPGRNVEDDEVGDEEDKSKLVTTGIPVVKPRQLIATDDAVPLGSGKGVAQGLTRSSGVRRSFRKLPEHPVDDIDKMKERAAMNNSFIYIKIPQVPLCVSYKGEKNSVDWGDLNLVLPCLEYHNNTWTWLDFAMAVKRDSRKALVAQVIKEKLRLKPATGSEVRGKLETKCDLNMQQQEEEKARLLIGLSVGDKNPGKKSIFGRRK
# UniProt Q5XPI3: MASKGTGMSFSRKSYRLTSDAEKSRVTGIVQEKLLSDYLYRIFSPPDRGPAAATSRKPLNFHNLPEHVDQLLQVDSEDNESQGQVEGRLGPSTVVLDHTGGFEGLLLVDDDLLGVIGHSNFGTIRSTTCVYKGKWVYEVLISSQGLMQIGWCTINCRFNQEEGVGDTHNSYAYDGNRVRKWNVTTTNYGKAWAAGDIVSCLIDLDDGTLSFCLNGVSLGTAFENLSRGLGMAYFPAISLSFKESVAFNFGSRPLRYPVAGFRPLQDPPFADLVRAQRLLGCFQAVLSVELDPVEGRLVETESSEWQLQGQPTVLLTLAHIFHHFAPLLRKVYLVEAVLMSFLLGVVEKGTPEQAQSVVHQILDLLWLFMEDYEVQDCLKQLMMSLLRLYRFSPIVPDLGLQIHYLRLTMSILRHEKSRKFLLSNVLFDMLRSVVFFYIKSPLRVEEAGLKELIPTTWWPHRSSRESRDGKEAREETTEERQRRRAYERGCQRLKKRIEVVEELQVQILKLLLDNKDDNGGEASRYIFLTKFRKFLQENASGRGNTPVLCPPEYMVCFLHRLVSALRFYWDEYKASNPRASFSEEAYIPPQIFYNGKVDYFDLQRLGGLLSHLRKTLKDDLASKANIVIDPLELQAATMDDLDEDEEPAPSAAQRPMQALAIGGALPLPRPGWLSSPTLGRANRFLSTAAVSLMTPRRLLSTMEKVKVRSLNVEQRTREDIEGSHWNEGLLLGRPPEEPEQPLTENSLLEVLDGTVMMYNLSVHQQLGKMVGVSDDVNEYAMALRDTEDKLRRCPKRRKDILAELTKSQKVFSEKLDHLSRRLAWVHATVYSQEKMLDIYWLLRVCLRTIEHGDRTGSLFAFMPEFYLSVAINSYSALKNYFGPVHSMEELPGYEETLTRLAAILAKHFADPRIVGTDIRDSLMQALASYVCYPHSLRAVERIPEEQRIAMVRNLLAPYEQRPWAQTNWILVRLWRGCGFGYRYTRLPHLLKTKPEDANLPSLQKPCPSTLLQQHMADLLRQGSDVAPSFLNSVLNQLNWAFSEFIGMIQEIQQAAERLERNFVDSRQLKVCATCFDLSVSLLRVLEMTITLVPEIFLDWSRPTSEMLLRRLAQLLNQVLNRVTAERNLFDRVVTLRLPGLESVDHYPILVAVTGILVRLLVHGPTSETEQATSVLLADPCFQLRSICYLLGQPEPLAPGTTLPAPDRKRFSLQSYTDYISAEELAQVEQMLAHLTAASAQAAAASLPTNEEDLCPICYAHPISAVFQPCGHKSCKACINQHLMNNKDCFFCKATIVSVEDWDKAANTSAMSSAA
# UniProt Q5SRX1: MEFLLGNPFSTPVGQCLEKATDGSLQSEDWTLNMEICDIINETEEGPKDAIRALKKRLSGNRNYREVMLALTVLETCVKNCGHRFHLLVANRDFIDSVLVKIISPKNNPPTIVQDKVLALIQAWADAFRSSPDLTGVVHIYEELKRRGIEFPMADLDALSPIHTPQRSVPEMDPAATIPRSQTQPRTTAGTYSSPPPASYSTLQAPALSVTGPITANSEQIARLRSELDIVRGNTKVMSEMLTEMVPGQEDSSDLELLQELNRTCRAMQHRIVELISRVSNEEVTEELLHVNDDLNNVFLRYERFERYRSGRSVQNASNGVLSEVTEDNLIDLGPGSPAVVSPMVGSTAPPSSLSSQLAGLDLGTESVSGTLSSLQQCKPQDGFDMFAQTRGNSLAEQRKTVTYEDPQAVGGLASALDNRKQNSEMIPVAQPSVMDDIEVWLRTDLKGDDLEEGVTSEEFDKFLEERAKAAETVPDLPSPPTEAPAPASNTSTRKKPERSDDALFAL
# UniProt Q5SYD0: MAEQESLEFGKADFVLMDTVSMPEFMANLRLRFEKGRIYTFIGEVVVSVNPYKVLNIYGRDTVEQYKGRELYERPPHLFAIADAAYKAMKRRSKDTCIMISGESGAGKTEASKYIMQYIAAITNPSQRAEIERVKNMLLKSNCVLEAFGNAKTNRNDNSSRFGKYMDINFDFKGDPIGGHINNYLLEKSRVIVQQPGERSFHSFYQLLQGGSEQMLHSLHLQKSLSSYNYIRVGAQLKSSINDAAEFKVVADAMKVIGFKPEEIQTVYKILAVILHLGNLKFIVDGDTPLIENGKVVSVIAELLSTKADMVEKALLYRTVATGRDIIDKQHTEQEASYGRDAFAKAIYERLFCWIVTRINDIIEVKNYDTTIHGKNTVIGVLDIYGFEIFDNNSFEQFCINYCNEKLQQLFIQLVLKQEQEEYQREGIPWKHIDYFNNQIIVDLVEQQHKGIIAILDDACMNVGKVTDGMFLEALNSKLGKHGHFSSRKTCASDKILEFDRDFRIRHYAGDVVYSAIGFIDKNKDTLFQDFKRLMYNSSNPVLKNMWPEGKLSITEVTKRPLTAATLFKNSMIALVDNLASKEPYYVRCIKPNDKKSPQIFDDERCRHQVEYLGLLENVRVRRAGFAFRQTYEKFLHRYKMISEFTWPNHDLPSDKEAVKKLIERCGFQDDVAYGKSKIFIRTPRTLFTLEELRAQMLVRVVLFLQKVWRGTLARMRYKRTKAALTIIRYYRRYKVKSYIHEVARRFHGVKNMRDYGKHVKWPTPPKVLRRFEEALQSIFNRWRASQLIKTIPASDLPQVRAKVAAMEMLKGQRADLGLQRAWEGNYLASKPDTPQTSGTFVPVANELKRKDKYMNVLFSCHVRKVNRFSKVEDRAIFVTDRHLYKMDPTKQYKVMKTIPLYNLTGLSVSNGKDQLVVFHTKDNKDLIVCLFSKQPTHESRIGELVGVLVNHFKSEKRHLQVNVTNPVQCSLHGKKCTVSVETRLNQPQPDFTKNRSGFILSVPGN
# Compound: CN[C@@H]1C[C@H]2O[C@@](C)([C@@H]1OC)n1c3ccccc3c3c4c(c5c6ccccc6n2c5c31)C(=O)NC4 [staurosporine]
# Assay: log2 fold change of tryptic peptide abundance, ligand vs vehicle (limited proteolysis) (log2 ratio); higher = more trypsin-susceptible (destabilized)
# Conditions: ligand concentration: 20 uM; sample: mouse liver crude lysate; replicate design: treated separately
row,Target,log2 fold change
1,"UniProt Q61249 (peptide sequence: EYHLLHLRR, peptide start residue: 192)",0.545
2,"UniProt Q5HZG4 (peptide sequence: TPSAMVVEK, peptide start residue: 343)",-0.307
3,"UniProt Q5SSW2 (peptide sequence: NFDDAFLPVLKPHLER, peptide start residue: 1351)",0.903
4,"UniProt Q5ND29 (peptide sequence: LAAVQTQLR, peptide start residue: 161)",0.0762
5,"UniProt Q60773 (peptide sequence: TGFLDTLK, peptide start residue: 84)",0.608
6,"UniProt Q5SX40 (peptide sequence: LQTESGEYSR, peptide start residue: 1287)",0.394
7,"UniProt Q60644 (peptide sequence: MLGHELCRVCGDK, peptide start residue: 72)",-0.234
8,"UniProt Q60674 (peptide sequence: NSYLCNTGGR, peptide start residue: 367)",0.547
9,"UniProt Q60597 (peptide sequence: SSPYPTDVAR, peptide start residue: 457)",-0.205
10,"UniProt Q61206 (peptide sequence: GEKPNPLR, peptide start residue: 143)",-0.468
11,"UniProt Q60960 (peptide sequence: REEEGLQLR, peptide start residue: 28)",-0.492
12,"UniProt Q60I26 (peptide sequence: IQHLGAEIHLIR, peptide start residue: 895)",0.25
13,"UniProt Q5XG73 (peptide sequence: GAEQSGSDDKK, peptide start residue: 202)",-0.689
14,"UniProt Q60664 (peptide sequence: AVEVMIQHVENLKR, peptide start residue: 294)",-0.292
15,"UniProt Q60989 (peptide sequence: DISTEEQLRR, peptide start residue: 433)",0.412
16,"UniProt Q5SSL4 (peptide sequence: STLVLHDLLK, peptide start residue: 652)",0.0887
17,"UniProt Q5XJV7 (peptide sequence: GHPTQSPGYSYR, peptide start residue: 1263)",0.25
18,"UniProt Q60872 (peptide sequence: DYQDNKADVILKYNADEAR, peptide start residue: 83)",-0.207

row,Target,log2 fold change
1,"UniProt Q5KU39 (peptide sequence: DSTHCPLEK, peptide start residue: 633)",0.617
2,"UniProt Q5U405 (peptide sequence: NKPGVYTK, peptide start residue: 515)",-0.0357
3,"UniProt Q5SV80 (peptide sequence: CIQCGWR, peptide start residue: 767)",0.391
4,"UniProt Q5U4D9 (peptide sequence: GHTDYIHCLALR, peptide start residue: 166)",0.284
5,"UniProt Q60841 (peptide sequence: TVMLDTFSSAPVPQHER, peptide start residue: 2669)",-0.216
6,"UniProt Q60631 (peptide sequence: HDGAFLIR, peptide start residue: 79)",0.226
7,"UniProt Q60925 (peptide sequence: KVQVPEEQKDEK, peptide start residue: 246)",0.553
8,"UniProt Q60641 (peptide sequence: KLPAGHADLLEER, peptide start residue: 355)",-0.148
9,"UniProt Q5PRE5 (peptide sequence: DGEEITNEGK, peptide start residue: 167)",-0.17
10,"UniProt Q60875 (peptide sequence: QHTLLQEELRR, peptide start residue: 809)",-0.311
11,"UniProt Q61081 (peptide sequence: TADHQYMEGFK, peptide start residue: 244)",-1.16
12,"UniProt Q5YD48 (peptide sequence: KVTEGVVDVIVYPSAADK, peptide start residue: 158)",-0.248
13,"UniProt Q5XJY5 (peptide sequence: VIPEYCR, peptide start residue: 89)",-0.317
14,"UniProt Q5SYL3 (peptide sequence: SSILHLQEAVR, peptide start residue: 1812)",0.378
15,"UniProt Q5XPI3 (peptide sequence: ELIPTTWWPHR, peptide start residue: 451)",-0.21
16,"UniProt Q5SRX1 (peptide sequence: GNSLAEQR, peptide start residue: 392)",-0.161
17,"UniProt Q60780 (peptide sequence: LSNKTEEDIK, peptide start residue: 306)",0.243
18,"UniProt Q5SYD0 (peptide sequence: KDKYMNVLFSCHVR, peptide start residue: 851)",0.262

# Looked up one by one from above:
row,Target,log2 fold change
6,"UniProt Q60631 (peptide sequence: HDGAFLIR, peptide start residue: 79)",0.226
2,"UniProt Q5U405 (peptide sequence: NKPGVYTK, peptide start residue: 515)",-0.0357
10,"UniProt Q60875 (peptide sequence: QHTLLQEELRR, peptide start residue: 809)",-0.311
